Construct, isoform or probe ends are uncertain for at least one entry. A negative result means that nothing was seen under these conditions. Tags and fusion partners may be left off the protein sequences shown.
Target: T1, His:BZR1 (Oryza sativa (rice)) (UniProt Q7XI96)
T1 sequence (looked up, limits assumed): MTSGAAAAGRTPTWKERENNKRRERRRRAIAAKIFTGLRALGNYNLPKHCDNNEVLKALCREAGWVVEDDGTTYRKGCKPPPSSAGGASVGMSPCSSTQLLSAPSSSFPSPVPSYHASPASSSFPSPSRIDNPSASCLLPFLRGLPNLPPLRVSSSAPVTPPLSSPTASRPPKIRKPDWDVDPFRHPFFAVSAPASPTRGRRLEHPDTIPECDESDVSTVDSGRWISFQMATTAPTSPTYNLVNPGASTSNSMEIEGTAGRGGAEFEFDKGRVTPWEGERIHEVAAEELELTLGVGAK
Test: EMSA
Settings: EMSA: 1 ug His:BZR1, 40k cpm 32P-labeled probe; pH and temperature not given (protocol of Je et al., 2010); recombinant protein; protein details: His (pET28a(+)); label: 32P

Sequence | binding result
GTCTCACCGGGCTGTTTTTTTACGCCGATA (double strand) [probe mA] | no binding
TGGTCGCATCGTTTTTTTGAGCTGCCTATCG (double strand) [probe mB] | no binding

Reference: paper PMC8247761, “BZR1 Regulates Brassinosteroid-Mediated Activation of AMT1;2 in Rice”
